Patent US8084644B2, “Iminopropene compound and use thereof” (Sumitomo Chemical Company, Limited, priority 2005, dated 2011)
Some entries share one result that the patent states for a list of compounds. Some compounds share one range, which may span the group rather than tell each member.

What was measured:
Format in all cases: in vivo
Musca domestica = experiment: Test Example 5: filter paper test on houseflies; conditions: 500 ppm, female adult houseflies, after 24 hours
Adoxophyes orana = experiment: Test Example 2: artificial diet test on summer fruit tortrix larvae; conditions: 500 ppm, first-instar larvae, after 7 days
Plutella xylostella = experiment: Test Example 9: cabbage test on diamondback, second-instar; conditions: 500 ppm, 25° C., after five days
Culex pipiens pallens = experiment: Test Example 7: water treatment test on common mosquito larvae; conditions: concentration of active ingredient 3.5 ppm in water; last-instar larvae; after one day
Spodoptela litura = experiment: Test Example 1: artificial diet test on tobacco cutworm larvae; conditions: 500 ppm, fourth-instar larvae, after 6 days

Structure (SMILES)	index number (mortality) (Musca domestica)	index number (mortality) (Adoxophyes orana)	index number (mortality) (Plutella xylostella)	index number (mortality) (Culex pipiens pallens)	index number (mortality) (Spodoptela litura)
C(=CC(=Nc1ccccc1)SCc1ccccc1)SCc1ccccc1 [(6), Benzyl N-phenyl-3-(benzylthio)thioacrylimidate]	3 (mortality 70 to 99%)	3 (mortality 80 to 99%)	3 (mortality 80 to 99%)	4 (mortality 91 to 100%)	3 (mortality 80 to 99%)
C(=CC(=Nc1ccccc1)Sc1ccccc1)SC1CCCCC1 [(7), Phenyl N-phenyl-3-(cyclohexylthio)thioacrylimidate]	–	3 (mortality 80 to 99%)	3 (mortality 80 to 99%)	4 (mortality 91 to 100%)	3 (mortality 80 to 99%)
COc1ccccc1N=C(C=CSc1ccccc1)Oc1ccccc1 [(42), Phenyl N-(2-methoxyphenyl)-3-(phenylthio)acrylimidate]	–	3 (mortality 80 to 99%)	3 (mortality 80 to 99%)	4 (mortality 91 to 100%)	–
Clc1cc(N=C(C=COc2ccccc2)Oc2ccccc2)cc(Cl)c1Cl [(65), Phenyl N-(3,4,5-trichlorophenyl)-3-(phenoxy)acrylimidate]	3 (mortality 70 to 99%)	3 (mortality 80 to 99%)	3 (mortality 80 to 99%)	4 (mortality 91 to 100%)	3 (mortality 80 to 99%)
C(=CC(=Nc1ccccc1)Oc1cccnc1)Oc1ccccc1 [(66), 3-Pyridyl N-phenyl-3-(phenoxy)acrylimidate]	3 (mortality 70 to 99%)	–	–	4 (mortality 91 to 100%)	–
CC(C)c1cccc(N=C(C=COc2ccccc2)Oc2ccccc2)c1 [(71), Phenyl N-[3-(1-methylethyl)phenyl]-3-(phenoxy)acrylimidate]	3 (mortality 70 to 99%)	3 (mortality 80 to 99%)	3 (mortality 80 to 99%)	4 (mortality 91 to 100%)	3 (mortality 80 to 99%)
Brc1ccc(N=C(C=COc2ccccc2)Oc2ccccc2)cc1 [(77), Phenyl N-(4-bromophenyl)-3-(phenoxy)acrylimidate]	–	3 (mortality 80 to 99%)	3 (mortality 80 to 99%)	4 (mortality 91 to 100%)	3 (mortality 80 to 99%)
COc1cccc(N=C(C=COc2ccccc2)Oc2ccccc2)c1 [(78), Phenyl N-(3-methoxyphenyl)-3-(phenoxy)acrylimidate]	–	3 (mortality 80 to 99%)	3 (mortality 80 to 99%)	4 (mortality 91 to 100%)	3 (mortality 80 to 99%)
CC(C)c1ccc(N=C(C=CSc2ccccc2)Oc2ccc3c(c2)OCO3)cc1 [(97), Benzo-1,3-dioxol-5-yl N-[4-(1-methylethyl)phenyl]-3-(phenylthio)acrylimidate]	3 (mortality 70 to 99%)	3 (mortality 80 to 99%)	–	–	3 (mortality 80 to 99%)
C(=CC(=Nc1ccc(Sc2ccccc2)cc1)Oc1ccccc1)Oc1ccccc1 [(98), Phenyl 3-(phenoxy)-N-(4-phenylthiophenyl)acrylimidate]	3 (mortality 70 to 99%)	–	–	4 (mortality 91 to 100%)	–
Brc1ccccc1SC=CC(=Nc1ccccc1)Oc1ccccc1 [(100), Phenyl 3-(2-bromophenylthio)-N-phenylacrylimidate]	–	3 (mortality 80 to 99%)	3 (mortality 80 to 99%)	4 (mortality 91 to 100%)	–
Fc1ccccc1SC=CC(=Nc1ccccc1)Oc1ccccc1 [(104), Phenyl 3-(2-fluorophenylthio)-N-phenylacrylimidate]	–	3 (mortality 80 to 99%)	–	4 (mortality 91 to 100%)	3 (mortality 80 to 99%)
C(=CC(=Nc1ccccc1)Oc1ccccc1)Sc1ncccn1 [(114), Phenyl N-phenyl-3-(2-pyrimidinylthio)acrylimidate]	–	3 (mortality 80 to 99%)	3 (mortality 80 to 99%)	4 (mortality 91 to 100%)	3 (mortality 80 to 99%)
C(=CC(=Nc1ccccc1)Oc1ccccc1)Sc1ccccn1 [(115), Phenyl N-phenyl-3-(2-pyridylthio)acrylimidate]	–	3 (mortality 80 to 99%)	3 (mortality 80 to 99%)	4 (mortality 91 to 100%)	3 (mortality 80 to 99%)
Cc1ccc(C)c(SC=CC(=Nc2ccccc2)Oc2ccccc2)c1 [(120), Phenyl 3-(2,5-dimethylphenylthio)-N-phenylacrylimidate]	3 (mortality 70 to 99%)	3 (mortality 80 to 99%)	3 (mortality 80 to 99%)	–	–
CC(C)c1ccccc1SC=CC(=Nc1ccccc1)Oc1ccccc1 [(122), Phenyl 3-[2-(1-methylethyl)phenylthio]-N-phenylacrylimidate]	3 (mortality 70 to 99%)	3 (mortality 80 to 99%)	3 (mortality 80 to 99%)	–	–

Structure (SMILES)	index number (mortality) (Musca domestica)	index number (mortality) (Adoxophyes orana)	index number (mortality) (Plutella xylostella)	index number (mortality) (Culex pipiens pallens)	index number (mortality) (Spodoptela litura)
CCSC=CC(=Nc1ccccc1)Oc1ccccc1 [(136), Phenyl 3-ethylthio-N-phenylacrylimidate]	3 (mortality 70 to 99%)	3 (mortality 80 to 99%)	–	4 (mortality 91 to 100%)	3 (mortality 80 to 99%)
CN(Cc1ccccc1)C(C=CSc1ccccc1)=Nc1ccccc1 [(149), N-Benzyl-N-methyl-N′-phenyl-3-phenylthioacrylamidine]	3 (mortality 70 to 99%)	3 (mortality 80 to 99%)	3 (mortality 80 to 99%)	–	3 (mortality 80 to 99%)
CSC(C=CSc1ccc(C)cc1)=Nc1ccccc1 [(162), Methyl N-phenyl-3-(4-methylphenylthio)thioacrylimidate]	3 (mortality 70 to 99%)	3 (mortality 80 to 99%)	–	4 (mortality 91 to 100%)	–
CSC(C=CSc1ccccc1)=Nc1ccccc1 [(163), Methyl N-phenyl-3-(phenylthio)thioacrylimidate]	3 (mortality 70 to 99%)	–	3 (mortality 80 to 99%)	4 (mortality 91 to 100%)	–
CC(=O)c1ccc(OC=CC(=Nc2ccc(C)c(C)c2)Oc2cccc(C)c2)cc1 [(304), 3-Methylphenyl 3-(4-acetylphenoxy)-N-(3,4-dimethylphenyl)acrylimidate]	3 (mortality 70 to 99%)	–	3 (mortality 80 to 99%)	–	–
Cc1ccc(N=C(C=CSc2cccc(F)c2)SCC2CCCCC2)cc1 [(343), Cyclohexylmethyl 3-(3-fluorophenylthio)-N-(4-methylphenyl)-thioacrylimidate]	3 (mortality 70 to 99%)	–	–	–	–
Cc1ccc(N=C(C=CSc2ccc([N+](=O)[O-])cc2)SCC2CCCCC2)cc1 [(354), Cyclohexylmethyl N-(4-methylphenyl)-3-(4-nitrophenylthio)-thioacrylimidate]	3 (mortality 70 to 99%)	–	–	–	–
COc1ccc(SC=CC(=Nc2ccc(C)cc2)SCC2CCCCC2)cc1 [(363), Cyclohexylmethyl 3-(4-methoxyphenylthio)-N-(4-methylphenyl)-thioacrylimidate]	3 (mortality 70 to 99%)	–	–	–	–
CC(=NSC(C=CSc1ccccc1)=Nc1ccc(C)cc1)c1ccccc1 [(385), 1-Phenylethylideneamino N-(4-methylphenyl)-3-(phenylthio)thioacrylimidate]	–	3 (mortality 80 to 99%)	–	4 (mortality 91 to 100%)	3 (mortality 80 to 99%)
Cc1ccc(N=C(C=CSc2ccc([N+](=O)[O-])cc2)SCC(C)C)cc1 [(440), Isobutyl N-(4-methylphenyl)-3-(4-nitrophenylthio)thioacrylimidate]	3 (mortality 70 to 99%)	–	–	–	–
Cc1ccc(N=C(C=CSc2ccc(C)cc2)SCC(C)C)cc1 [(443), Isobutyl N-(4-methylphenyl)-3-(4-methylphenylthio)thioacrylimidate]	3 (mortality 70 to 99%)	–	–	–	–
COc1cccc(SC=CC(=Nc2ccc(C)cc2)SCC(C)C)c1 [(446), Isobutyl 3-(3-methoxyphenylthio)-N-(4-methylphenyl)thioacrylimidate]	3 (mortality 70 to 99%)	–	–	–	–
COc1ccc(SC=CC(=Nc2ccc(C)cc2)SCC(C)C)cc1 [(447), Isobutyl 3-(4-methoxyphenylthio)-N-(4-methylphenyl)thioacrylimidate]	3 (mortality 70 to 99%)	–	–	–	–
CC(=NOC=CC(=Nc1ccc(C)c(C)c1)Oc1cccc(C)c1)c1ccccc1 [(492), 3-Methylphenyl N-(3,4-dimethylphenyl)-3-(1-phenylethylideneaminoxy)acrylimidate]	–	3 (mortality 80 to 99%)	–	4 (mortality 91 to 100%)	–
Cc1ccc(N=C(C=CSc2ccccc2)Sc2nccc(-n3cc(Cl)cn3)n2)cc1 [(507), 4-(4-Chloro-1H-pyrazole-1-yl)pyrimidine-2-yl N-(4-methylphenyl)-3-(phenylthio)thioacrylimidate]	–	3 (mortality 80 to 99%)	3 (mortality 80 to 99%)	4 (mortality 91 to 100%)	3 (mortality 80 to 99%)
